The results in this text go back to paper PMC7387338.

For test [1], the target named is T1, N-terminal Flag-tagged Skint1 (mouse) (UniProt A7TZE6).
T1 sequence: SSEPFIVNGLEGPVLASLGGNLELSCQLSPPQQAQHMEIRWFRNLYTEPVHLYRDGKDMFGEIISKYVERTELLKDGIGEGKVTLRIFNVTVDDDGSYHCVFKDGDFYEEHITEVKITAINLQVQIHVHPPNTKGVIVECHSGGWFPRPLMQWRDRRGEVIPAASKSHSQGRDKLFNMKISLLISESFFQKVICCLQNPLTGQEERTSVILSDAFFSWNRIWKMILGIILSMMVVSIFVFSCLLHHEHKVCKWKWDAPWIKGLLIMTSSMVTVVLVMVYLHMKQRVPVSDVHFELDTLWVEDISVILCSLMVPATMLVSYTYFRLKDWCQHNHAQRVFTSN
In words: co-IP; anti-Skint1 immunoprecipitation from RIPA lysates of 293T cells co-transfected with Flag-Skint1 and HA-Skint2; Protein G beads, three washes in RIPA buffer; western blot.

In test [2] the target is T2, N-terminal Flag-tagged Skint1 expressed in transgenic mice (NF-Skint1^Tg) (mouse) (UniProt A7TZE6).
T2 sequence: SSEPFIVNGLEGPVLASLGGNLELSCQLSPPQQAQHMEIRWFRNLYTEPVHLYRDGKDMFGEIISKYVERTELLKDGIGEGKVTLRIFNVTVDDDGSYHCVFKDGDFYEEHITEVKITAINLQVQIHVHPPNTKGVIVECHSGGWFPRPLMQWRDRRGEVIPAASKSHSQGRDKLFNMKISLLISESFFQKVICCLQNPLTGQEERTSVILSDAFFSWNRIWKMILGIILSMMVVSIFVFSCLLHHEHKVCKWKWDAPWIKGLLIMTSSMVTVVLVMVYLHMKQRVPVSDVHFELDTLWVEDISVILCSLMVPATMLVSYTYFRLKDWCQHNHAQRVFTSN
As to the kind of experiment: co-IP; anti-Flag (M2 beads, overnight at 4 °C) immunoprecipitation from RIPA lysates of pooled E17/E18 thymi of NF-Skint1^Tg (22) and FVB (12) pups; three washes in RIPA buffer; 3xFlag peptide eluate or boiled beads; western blot with anti-Skint1 and anti-Skint2.

Results are given in words; binding and its absence hold for the method and conditions named. Binding seen in cells or lysates may run through a third protein. Some entries that bind do so weakly or less than the wild type. Sequences can lack the tags named with a protein.

B1: HA-tagged Skint2 (protein, UniProt A7XUX6 22-400)
chain: SEKFTVTGLQRPVLAPLGGNVELSCQLSPPQQAQHMEIRWFRNRYREPVYLYRNGKDLHGETISKYVERTELLKDDIGKGKVTLRIFKLTADDDGSYHCVFKVGEFYEEHITEIKVTATSSVMYILMQPPNIKGVMLECHSGGWFPQPHMEWRDNKGNIIPATSKAHSQDENKLFNMTMTLLIEASSHRSITCYLQNLLTHQEESISIVLSGELFSWKRVWIMILTTIGFMMIAFCMTYCVQQHLLYGTFSKGKCHWLKSTMIFMFSVIAVTGVMLILHLKQRVPVSDQHFELDTLWLEDISVILCVLIVFIIKLISFIYFRLEGDHQGWSLPPYLSATPTAAICRLAVPEYSRGHLQLDSEDDLAGMGPSPFFITPCF
As for B1, the binding result in test [1] is given as “binds”.

B2: Skint2, endogenous, untagged (protein, UniProt A7XUX6 22-400)
chain: SEKFTVTGLQRPVLAPLGGNVELSCQLSPPQQAQHMEIRWFRNRYREPVYLYRNGKDLHGETISKYVERTELLKDDIGKGKVTLRIFKLTADDDGSYHCVFKVGEFYEEHITEIKVTATSSVMYILMQPPNIKGVMLECHSGGWFPQPHMEWRDNKGNIIPATSKAHSQDENKLFNMTMTLLIEASSHRSITCYLQNLLTHQEESISIVLSGELFSWKRVWIMILTTIGFMMIAFCMTYCVQQHLLYGTFSKGKCHWLKSTMIFMFSVIAVTGVMLILHLKQRVPVSDQHFELDTLWLEDISVILCVLIVFIIKLISFIYFRLEGDHQGWSLPPYLSATPTAAICRLAVPEYSRGHLQLDSEDDLAGMGPSPFFITPCF
As to B2, the binding result in test [2] was “binds”.
